From patent US20110301335A1 (published 2011)
Results are given in words; binding and its absence hold for the method and conditions named. Some binding calls cover weakened binding; strength is not graded here.

Tests used:
[1] = biological target: T1, mouse TNFR1 (R&D systems cat no. 425-R1-050/CF) (mouse) (UniProt P25118); assay: BIAcore sequential injection on biotinylated mouse TNFR1; after DOM1m-21-23
T1 sequence (biotinylated with EZ-Link NHS-LC-LC-biotin, looked up): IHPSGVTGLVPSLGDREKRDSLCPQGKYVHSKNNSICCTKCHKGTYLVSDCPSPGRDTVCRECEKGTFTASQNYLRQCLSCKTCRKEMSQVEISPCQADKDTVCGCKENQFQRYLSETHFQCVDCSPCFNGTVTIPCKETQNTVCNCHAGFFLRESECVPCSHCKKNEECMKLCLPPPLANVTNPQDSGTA

[2] = biological target: T1, mouse TNFR1 (R&D systems cat no. 425-R1-050/CF) (mouse); assay: BIAcore
[3] = biological target: T1, mouse TNFR1 (R&D systems cat no. 425-R1-050/CF) (mouse); assay: BIAcore, biotinylated mouse TNFR1 on SA chip, alone and after DOM1m-21-23 (concentration not given)
[4] = biological target: T1, mouse TNFR1 (R&D systems cat no. 425-R1-050/CF) (mouse); assay: BIAcore, biotinylated mouse TNFR1 on SA chip, dAb at 1 µM

binding [1]: binds
binding [2]: binds
binding [3]: binds
binding [4]: binds
B1: DOM1h-574-16 (other)
VH: EVQLLESGGGLVQPGGSLRLSCAASGFTFVKYSMGWVRQAPGKGPEWVSQISNTGDRTYYADSVKGRFTISRDNSKNTLYLQMNSLRAEDTAVYYCAIYTGRWEPFDYWGQGTLVTVSS
